From the supplement of paper PMC10849652 come the findings set out here.

Protein sequences, listed by entry. Tags and fused reporters are not part of them. Lines headed by an entry give the natural chain unless they say otherwise; changes in a name come on top.
UniProt Q9NP58: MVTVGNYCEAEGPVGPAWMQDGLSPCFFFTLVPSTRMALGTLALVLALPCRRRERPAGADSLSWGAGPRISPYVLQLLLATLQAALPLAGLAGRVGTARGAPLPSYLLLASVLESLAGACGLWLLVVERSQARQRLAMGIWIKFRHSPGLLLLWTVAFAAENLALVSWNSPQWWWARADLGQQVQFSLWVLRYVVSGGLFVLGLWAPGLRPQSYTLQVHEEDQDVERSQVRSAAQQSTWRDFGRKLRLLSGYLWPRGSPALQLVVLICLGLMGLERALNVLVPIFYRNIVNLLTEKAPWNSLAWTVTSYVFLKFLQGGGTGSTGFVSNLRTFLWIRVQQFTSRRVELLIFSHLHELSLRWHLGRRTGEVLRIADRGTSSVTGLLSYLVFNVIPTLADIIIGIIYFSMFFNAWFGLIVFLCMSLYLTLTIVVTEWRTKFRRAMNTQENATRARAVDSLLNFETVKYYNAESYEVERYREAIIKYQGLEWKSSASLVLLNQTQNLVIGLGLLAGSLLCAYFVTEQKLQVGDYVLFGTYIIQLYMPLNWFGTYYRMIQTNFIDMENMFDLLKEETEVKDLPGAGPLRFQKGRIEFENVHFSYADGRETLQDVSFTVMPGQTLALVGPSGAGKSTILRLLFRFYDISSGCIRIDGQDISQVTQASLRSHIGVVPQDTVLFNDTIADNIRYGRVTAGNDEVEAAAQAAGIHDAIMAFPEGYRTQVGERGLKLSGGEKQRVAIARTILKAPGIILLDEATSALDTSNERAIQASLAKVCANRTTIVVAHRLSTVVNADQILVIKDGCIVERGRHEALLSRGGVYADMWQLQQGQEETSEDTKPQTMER
UniProt Q99758: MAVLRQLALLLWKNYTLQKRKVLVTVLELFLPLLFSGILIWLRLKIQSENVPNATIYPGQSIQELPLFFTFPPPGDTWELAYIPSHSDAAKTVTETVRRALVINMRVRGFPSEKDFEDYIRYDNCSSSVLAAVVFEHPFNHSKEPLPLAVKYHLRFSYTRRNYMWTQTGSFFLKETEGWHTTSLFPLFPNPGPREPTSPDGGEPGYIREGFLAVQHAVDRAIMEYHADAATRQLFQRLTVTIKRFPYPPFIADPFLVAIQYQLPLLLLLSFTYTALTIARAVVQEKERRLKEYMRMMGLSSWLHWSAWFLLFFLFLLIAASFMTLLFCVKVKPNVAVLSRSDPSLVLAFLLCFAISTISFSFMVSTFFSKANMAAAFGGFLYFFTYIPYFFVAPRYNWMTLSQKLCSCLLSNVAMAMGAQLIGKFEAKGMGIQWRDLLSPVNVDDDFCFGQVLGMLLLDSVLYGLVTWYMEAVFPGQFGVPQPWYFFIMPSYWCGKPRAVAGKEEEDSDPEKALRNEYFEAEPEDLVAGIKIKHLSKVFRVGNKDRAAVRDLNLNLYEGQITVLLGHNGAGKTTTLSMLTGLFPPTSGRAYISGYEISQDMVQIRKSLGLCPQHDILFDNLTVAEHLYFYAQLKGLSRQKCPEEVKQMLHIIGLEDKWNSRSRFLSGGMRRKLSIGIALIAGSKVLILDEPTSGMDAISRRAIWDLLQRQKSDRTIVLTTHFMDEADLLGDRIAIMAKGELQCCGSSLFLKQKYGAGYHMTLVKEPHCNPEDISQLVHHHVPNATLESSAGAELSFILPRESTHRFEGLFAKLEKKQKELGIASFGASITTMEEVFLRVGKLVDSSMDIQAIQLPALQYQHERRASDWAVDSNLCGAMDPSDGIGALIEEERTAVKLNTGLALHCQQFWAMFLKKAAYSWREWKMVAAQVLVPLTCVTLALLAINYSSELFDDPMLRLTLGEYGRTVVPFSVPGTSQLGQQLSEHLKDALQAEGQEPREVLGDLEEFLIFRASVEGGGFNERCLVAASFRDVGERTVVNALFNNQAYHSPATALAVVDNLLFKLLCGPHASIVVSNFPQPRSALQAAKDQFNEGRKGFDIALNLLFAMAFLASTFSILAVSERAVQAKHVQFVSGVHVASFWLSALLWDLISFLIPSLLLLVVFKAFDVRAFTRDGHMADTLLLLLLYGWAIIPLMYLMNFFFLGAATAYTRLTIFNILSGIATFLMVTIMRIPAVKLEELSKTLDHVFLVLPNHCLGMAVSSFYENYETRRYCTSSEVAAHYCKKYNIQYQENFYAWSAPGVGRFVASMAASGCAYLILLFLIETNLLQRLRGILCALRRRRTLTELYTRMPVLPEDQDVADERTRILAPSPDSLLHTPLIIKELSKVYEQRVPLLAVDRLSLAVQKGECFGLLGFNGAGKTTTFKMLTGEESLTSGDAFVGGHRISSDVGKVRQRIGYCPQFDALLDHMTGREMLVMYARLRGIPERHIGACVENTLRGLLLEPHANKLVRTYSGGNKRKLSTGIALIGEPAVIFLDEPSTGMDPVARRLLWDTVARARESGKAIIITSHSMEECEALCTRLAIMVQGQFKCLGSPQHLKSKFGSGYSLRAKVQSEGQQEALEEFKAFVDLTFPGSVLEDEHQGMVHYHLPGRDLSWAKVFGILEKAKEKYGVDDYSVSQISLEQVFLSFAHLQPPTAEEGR
UniProt Q9UKV3: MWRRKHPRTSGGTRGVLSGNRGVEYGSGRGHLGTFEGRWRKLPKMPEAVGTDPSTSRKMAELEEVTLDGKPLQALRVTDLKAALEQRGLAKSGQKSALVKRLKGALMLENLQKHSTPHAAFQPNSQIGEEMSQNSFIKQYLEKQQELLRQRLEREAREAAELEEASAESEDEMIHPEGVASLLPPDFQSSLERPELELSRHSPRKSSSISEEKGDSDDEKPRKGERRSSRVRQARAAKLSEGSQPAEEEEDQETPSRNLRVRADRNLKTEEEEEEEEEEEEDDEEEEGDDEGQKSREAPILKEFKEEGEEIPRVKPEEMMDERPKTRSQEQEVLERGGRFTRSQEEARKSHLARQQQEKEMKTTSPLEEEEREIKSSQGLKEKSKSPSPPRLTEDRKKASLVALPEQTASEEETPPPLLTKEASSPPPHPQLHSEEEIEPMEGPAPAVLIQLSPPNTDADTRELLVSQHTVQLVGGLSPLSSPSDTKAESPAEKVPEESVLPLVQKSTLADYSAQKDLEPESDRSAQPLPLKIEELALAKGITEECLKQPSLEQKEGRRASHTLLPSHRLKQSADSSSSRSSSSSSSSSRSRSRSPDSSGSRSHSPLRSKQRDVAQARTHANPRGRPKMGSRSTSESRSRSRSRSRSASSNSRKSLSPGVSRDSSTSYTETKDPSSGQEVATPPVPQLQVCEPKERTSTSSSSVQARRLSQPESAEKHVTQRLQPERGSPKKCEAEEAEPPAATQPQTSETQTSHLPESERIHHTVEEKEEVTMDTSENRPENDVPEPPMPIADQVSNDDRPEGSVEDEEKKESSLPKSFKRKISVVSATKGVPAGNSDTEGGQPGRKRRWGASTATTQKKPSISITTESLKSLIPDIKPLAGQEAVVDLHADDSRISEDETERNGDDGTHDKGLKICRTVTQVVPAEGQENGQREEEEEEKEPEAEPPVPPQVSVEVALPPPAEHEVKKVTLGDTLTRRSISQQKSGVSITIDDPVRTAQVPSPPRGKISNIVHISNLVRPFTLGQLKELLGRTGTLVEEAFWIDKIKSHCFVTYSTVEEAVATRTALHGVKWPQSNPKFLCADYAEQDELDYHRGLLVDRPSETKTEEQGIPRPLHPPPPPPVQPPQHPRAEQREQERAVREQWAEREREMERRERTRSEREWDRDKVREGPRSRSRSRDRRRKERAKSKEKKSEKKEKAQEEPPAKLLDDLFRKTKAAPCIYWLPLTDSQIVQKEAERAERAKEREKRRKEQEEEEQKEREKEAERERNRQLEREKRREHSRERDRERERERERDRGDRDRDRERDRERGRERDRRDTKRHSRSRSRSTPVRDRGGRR
UniProt Q7L211: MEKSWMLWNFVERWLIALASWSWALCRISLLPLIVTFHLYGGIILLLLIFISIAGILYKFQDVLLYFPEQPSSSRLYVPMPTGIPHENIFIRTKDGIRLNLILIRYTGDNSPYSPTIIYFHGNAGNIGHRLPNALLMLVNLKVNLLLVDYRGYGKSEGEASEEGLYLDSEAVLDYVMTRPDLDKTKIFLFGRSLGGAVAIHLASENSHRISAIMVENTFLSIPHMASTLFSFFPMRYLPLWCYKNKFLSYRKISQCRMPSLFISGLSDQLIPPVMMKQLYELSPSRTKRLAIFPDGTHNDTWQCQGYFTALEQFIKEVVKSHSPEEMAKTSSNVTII
UniProt P24666: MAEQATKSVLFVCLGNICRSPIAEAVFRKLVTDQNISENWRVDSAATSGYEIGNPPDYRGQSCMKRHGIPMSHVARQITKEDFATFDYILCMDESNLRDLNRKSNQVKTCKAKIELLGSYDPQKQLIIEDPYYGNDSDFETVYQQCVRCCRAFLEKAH
UniProt Q9Y312: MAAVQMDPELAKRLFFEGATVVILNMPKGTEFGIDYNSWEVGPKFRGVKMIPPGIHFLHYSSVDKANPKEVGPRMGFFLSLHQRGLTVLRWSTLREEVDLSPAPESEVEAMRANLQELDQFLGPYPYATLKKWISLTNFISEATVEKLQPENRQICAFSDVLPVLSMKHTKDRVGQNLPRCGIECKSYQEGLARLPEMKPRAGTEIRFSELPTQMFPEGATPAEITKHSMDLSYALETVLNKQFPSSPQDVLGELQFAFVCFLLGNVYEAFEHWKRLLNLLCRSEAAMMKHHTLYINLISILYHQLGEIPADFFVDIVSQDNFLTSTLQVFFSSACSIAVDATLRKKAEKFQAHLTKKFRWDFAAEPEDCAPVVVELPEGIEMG
UniProt Q5T3U5: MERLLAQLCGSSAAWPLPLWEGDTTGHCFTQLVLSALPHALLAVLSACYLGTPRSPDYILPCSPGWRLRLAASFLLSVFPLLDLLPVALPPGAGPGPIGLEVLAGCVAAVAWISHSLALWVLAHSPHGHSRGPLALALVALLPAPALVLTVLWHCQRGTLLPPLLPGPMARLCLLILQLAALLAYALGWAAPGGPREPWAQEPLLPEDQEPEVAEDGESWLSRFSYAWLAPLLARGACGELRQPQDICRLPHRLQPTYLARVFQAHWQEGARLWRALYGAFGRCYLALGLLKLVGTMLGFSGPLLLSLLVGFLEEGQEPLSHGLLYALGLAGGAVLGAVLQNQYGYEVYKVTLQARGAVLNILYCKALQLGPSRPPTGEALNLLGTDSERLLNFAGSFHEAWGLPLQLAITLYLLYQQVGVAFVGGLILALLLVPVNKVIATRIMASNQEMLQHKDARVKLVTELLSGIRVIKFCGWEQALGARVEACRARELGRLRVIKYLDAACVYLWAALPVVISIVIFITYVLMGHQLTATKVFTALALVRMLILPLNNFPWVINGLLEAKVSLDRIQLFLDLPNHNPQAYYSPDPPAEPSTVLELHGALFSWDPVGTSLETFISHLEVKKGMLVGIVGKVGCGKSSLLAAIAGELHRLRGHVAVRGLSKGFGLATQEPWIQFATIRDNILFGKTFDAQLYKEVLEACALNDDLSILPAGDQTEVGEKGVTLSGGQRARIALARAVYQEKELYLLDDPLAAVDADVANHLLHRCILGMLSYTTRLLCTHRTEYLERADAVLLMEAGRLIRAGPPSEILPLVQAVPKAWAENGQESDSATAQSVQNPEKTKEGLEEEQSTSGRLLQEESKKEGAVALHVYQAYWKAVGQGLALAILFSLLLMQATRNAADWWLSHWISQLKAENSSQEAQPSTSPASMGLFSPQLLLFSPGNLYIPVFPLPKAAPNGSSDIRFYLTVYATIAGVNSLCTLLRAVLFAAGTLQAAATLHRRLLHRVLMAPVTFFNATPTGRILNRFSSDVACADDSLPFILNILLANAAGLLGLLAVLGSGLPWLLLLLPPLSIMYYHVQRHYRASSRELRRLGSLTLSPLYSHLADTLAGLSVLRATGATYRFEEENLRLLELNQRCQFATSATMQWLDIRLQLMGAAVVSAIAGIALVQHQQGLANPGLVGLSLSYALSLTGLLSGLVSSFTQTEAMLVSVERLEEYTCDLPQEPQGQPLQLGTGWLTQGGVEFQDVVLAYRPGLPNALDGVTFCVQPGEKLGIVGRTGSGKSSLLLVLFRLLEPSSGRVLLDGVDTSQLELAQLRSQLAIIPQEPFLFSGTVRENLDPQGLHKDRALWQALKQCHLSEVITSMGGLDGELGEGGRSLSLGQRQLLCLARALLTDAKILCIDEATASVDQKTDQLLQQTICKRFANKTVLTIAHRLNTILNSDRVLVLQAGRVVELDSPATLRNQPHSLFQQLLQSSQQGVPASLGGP
UniProt Q6PD74: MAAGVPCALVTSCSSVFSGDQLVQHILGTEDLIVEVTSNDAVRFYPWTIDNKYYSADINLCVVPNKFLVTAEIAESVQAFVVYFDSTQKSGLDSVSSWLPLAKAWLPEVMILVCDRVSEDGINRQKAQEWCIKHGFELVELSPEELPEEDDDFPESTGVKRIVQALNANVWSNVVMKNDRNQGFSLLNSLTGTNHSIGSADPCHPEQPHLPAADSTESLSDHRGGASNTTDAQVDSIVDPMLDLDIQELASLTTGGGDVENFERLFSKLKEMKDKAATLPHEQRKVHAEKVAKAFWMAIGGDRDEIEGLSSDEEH

The list shows a part of the results.

Compound in one assay: CN1CCN(CCOc2cc(OC3CCOCC3)c3c(Nc4c(Cl)ccc5c4OCO5)ncnc3c2)CC1 [saracatinib]
Put plainly: log2 fold change, soluble protein after heating vs DMSO (PISA); higher = thermal stabilisation; K562 cells, 10 uM, 30 min; active = over 0.2 and 3.5 SD of the protein, either way, in both replicates (recomputed). Summed up:
(§1)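 K562 cells at 2×10^6 cells/mL were given 10 μM compound for 30 min. Aliquots then went through 3 min of heating across 48°C-58°C, were pooled, and were extracted in PBS with 0.5% NP-40 at 4°C, and the supernatant after 21,000xg for 90 min was quantified by TMTpro 16plex LC-MS/MS with channel sums equalised. Thermal stability relative to control samples, from duplicates, is given as log2 fold change.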
Consider ACTBL2 (UniProt Q562R1), for which the log2 fold change is inactive: -0.054. Consider ABCB6 (UniProt Q9NP58), for which the log2 fold change is inactive: 0.073. For the target ABCA3 (UniProt Q99758), the log2 fold change is inactive: 0.009. On the same count and under the same terms, the figure for AASDH (UniProt Q4L235) is inactive: 0.011; for ACO2 (UniProt Q99798) it is inactive: 0.005; for ACADM isoform 2 (UniProt P11310) it is inactive: 0.031. As to ACIN1 (UniProt Q9UKV3), the log2 fold change is inactive: -0.027. Consider AAK1, A0A096LP25, for which the log2 fold change was inactive: 0.147. Same read-out and setting: then ACSF3 (UniProt Q4G176), with inactive: 0.079; and AARS2 (UniProt Q5JTZ9), with inactive: 0. In the case of ACBD6 (UniProt Q9BR61), the log2 fold change was inactive: -0.129. With ACADVL isoform 3 (UniProt P49748), the log2 fold change was inactive: 0.027. Same read-out and setting: the figure for ACSL5 isoform 3 (UniProt Q9ULC5) is inactive: 0.058; for AARSD1 isoform 3 (UniProt Q9BTE6) it is inactive: -0.009; for ABITRAM (UniProt Q9NX38) it is inactive: 0.035.

Compound in another assay: CN1CCN(c2nc(C3=C(c4c[nH]c5ccccc45)C(=O)NC3=O)c3ccccc3n2)CC1 [sotrastaurin]
The description is as above. Summed up: as §1
As for AAK1 (UniProt Q2M2I8), the log2 fold change is inactive: -0.196. In the case of ADAMTS5 (UniProt Q9UNA0), the log2 fold change was inactive: -0.004. In the case of ABHD13 (UniProt Q7L211), the log2 fold change is inactive: 0.008. As for ACSL1 (UniProt P33121), the log2 fold change is inactive: 0.029. For the target ABHD16A (UniProt O95870), the log2 fold change was inactive: 0.214. Turning to ACP1 isoform 2 (UniProt P24666), the log2 fold change is inactive: -0.11. The same measure, in the same setting: the figure for AAR2 (UniProt Q9Y312) is inactive: -0.017. Still for that read-out and setting: the figure for ACSM3 (UniProt Q53FZ2) is inactive: 0.018; for ABCC10 (UniProt Q5T3U5) it is inactive: -0.007. Consider AAMP (UniProt Q13685), for which the log2 fold change is inactive: 0.006. The same measure, in the same setting: the figure for ACSL4 (UniProt O60488) is inactive: -0.086.

Regarding ABHD17A isoform 2 (UniProt Q96GS6), the log2 fold change was inactive: 0.01. Same read-out and setting: then ACAP2 (UniProt Q15057), with inactive: -0.029; and ACTR1B (UniProt P42025), with inactive: -0.025. Regarding ABHD14A (UniProt Q9BUJ0), the log2 fold change is inactive: -0.117. On the same count and under the same terms, then ACP1 (UniProt P24666), with inactive: -0.054; and ABCC5 (UniProt O15440), with inactive: -0.028; and ACSL3 (UniProt O95573), with inactive: -0.014. ADAMTS13 (UniProt Q76LX8): the log2 fold change is inactive: 0.071. ADAM15 (UniProt Q13444): the log2 fold change was inactive: -0.034. On to AAGAB (UniProt Q6PD74), for which the log2 fold change was inactive: 0.007. Same read-out and setting: the figure for ACSL6 isoform 1 (UniProt Q9UKU0) is inactive: 0.177; for ACTBL2 (UniProt Q562R1) it is inactive: 0.179. Take ABCB6 (UniProt Q9NP58): the log2 fold change was inactive: 0.01. Same read-out and setting: the figure for ABCA3 (UniProt Q99758) is inactive: 0.121; for AASDH (UniProt Q4L235) it is inactive: -0.067; for ACO2 (UniProt Q99798) it is inactive: -0.017. With ACADM isoform 2 (UniProt P11310), the log2 fold change is active: 0.274. ACIN1 (UniProt Q9UKV3): the log2 fold change is inactive: -0.01. AAK1, A0A096LP25: the log2 fold change was inactive: -0.005. On to ACSF3 (UniProt Q4G176), for which the log2 fold change is inactive: 0.002. Still for that read-out and setting: the figure for AARS2 (UniProt Q5JTZ9) is inactive: -0.05; for ACBD6 (UniProt Q9BR61) it is inactive: -0.115; for ACADVL isoform 3 (UniProt P49748) it is inactive: 0.056. For the target ACSL5 isoform 3 (UniProt Q9ULC5), the log2 fold change was inactive: 0.078. For the target AARSD1 isoform 3 (UniProt Q9BTE6), the log2 fold change is inactive: -0.113.

With ABITRAM (UniProt Q9NX38), the log2 fold change was inactive: -0.188.
